The list shows only some results of the screen, not a fair sample: it gathers tests that were run many times, whatever their T/C, doses with no T/C, and many T/C values between a quarter and a half above the control. Other doses and runs of a compound stand elsewhere. T/C: endpoint of the treated group in % of that of the vehicle group. Some doses have a count of surviving animals in place of a T/C: the source holds a T/C of zero for them, seemingly a mark for toxic or unscored doses. Some doses without a T/C left all or most animals alive at the check, yet need not have been tolerated: survival well below the control is almost never listed, so the zero probably covers shortened survival too. Survivors were counted at the toxicity check, usually on the fifth day, unless a day is given; later deaths do not show. Schedules are NCI's codes, read here as Q, the interval in days (D) or hours (H), X, the number of doses. Counts like (3×) stand for listed records that agree. Some entries were tested several times; the values are given in rising order. For survival time, the PubChem record calls one and a half times the control and up active, and a quarter to a half above the control has no call in these data; cut-offs in other NCI protocols can differ. Some T/C values carry the count of animals alive at the toxicity check (mostly the fifth day); where none is given, no animal had died by that day.

The assay concerns P388 leukemia ip, CD2F1 mice, survival T/C. The assay is described as follows: NCI In Vivo Anticancer Drug Screen. Data for tumor model P388 Leukemia (intraperitoneal) in CD2F1 (CDF1) mice. As to conditions: T/C endpoint: median survival time, higher T/C = longer survival.
The mark [1] stands for this setting: dose: 200.0 mg/kg/injection, schedule: Q01DX009 (ip), vehicle: saline.
Setting [2] is: dose: 67.0 mg/kg/injection, schedule: Q01DX005 (ip), vehicle: other.

With `O=C1/C(=C/c2cccc([N+](=O)[O-])c2)SC(=S)N1C1CC1`, the survivor count (dose: 200.0 mg/kg/injection, schedule: Q01DX005 (ip), vehicle: Klucel (hydroxypropylcellulose) (HPC)) was 5 of 5.
With `CC(=O)OCC1OC(N(CCCl)CCCl)C(OC(C)=O)C(OC(C)=O)C1OC(C)=O` (configuration not stated), the T/C runs as follows: (dose: 5.0 mg/kg/injection, schedule: Q01DX005 (ip), vehicle: distilled water + Tween-80) 149 % of control; (dose: 10.0 mg/kg/injection, schedule: Q01DX005 (ip), vehicle: distilled water + Tween-80) 129, 132, 146 % of control. For the same molecule, the survivor count is, setting by setting: (dose: 40.0 mg/kg/injection, schedule: Q01DX005 (ip), vehicle: distilled water + Tween-80) 4 of 5 and 5 of 5; (dose: 80.0 mg/kg/injection, schedule: Q01DX005 (ip), vehicle: distilled water + Tween-80) 4 of 5.
On to `COc1ccc(OC)c(N=Cc2ccc(C=Nc3cc(OC)ccc3OC)cc2)c1`, for which the survivor count under setting [1] is 6 of 6.
Consider `Cc1ccc(C(=O)Cc2nc(C#N)c(C#N)nc2CC(=O)c2ccc(C)cc2)cc1`, for which the survivor count (dose: 240.0 mg/kg/injection, schedule: Q01DX005 (ip), vehicle: saline with Tween-80) is 5 of 6.
As for `OC(CN1CCCCC1)c1ccc(/C=C/c2ccc(Cl)cc2)cc1` (configuration not stated), the survivor count (dose: 50.0 mg/kg/injection, schedule: Q01DX009 (ip), vehicle: saline) was 6 of 6.
Consider `NS(=O)(=O)OCCCCCCCOS(N)(=O)=O`, for which the T/C is 131 % of control (dose: 5.0 mg/kg/injection, schedule: Q03HX009 (ip), vehicle: other); 139 % of control (dose: 7.0 mg/kg/injection, schedule: Q03HX009 (ip), vehicle: other); 140 % of control (dose: 7.4 mg/kg/injection, schedule: Q01DX009 (ip), vehicle: other); 130 % of control (dose: 10.0 mg/kg/injection, schedule: Q03HX003 (ip), vehicle: other); 134 % of control (dose: 11.1 mg/kg/injection, schedule: Q01DX009 (ip), vehicle: other); 126 % of control (dose: 12.5 mg/kg/injection, schedule: Q01DX005 (ip), vehicle: saline with Tween-80). The T/C (dose: 13.0 mg/kg/injection, schedule: Q01DX005 (ip), vehicle: other) is 142 % of control; the T/C (dose: 13.0 mg/kg/injection, schedule: Q01DX005 (ip), vehicle: saline with Tween-80) was 138 % of control; the T/C (dose: 13.4 mg/kg/injection, schedule: Q01DX005 (ip), vehicle: other) was 141 % of control; the T/C (dose: 14.9 mg/kg/injection, schedule: Q04DX003 (ip), vehicle: other) is 130 % of control; the T/C (dose: 15.0 mg/kg/injection, schedule: Q03HX003 (ip), vehicle: other) was 141 % of control; the T/C (dose: 20.0 mg/kg/injection, schedule: Q01DX005 (ip), vehicle: saline with Tween-80) was 138 % of control. In addition, the T/C by setting is: (dose: 20.0 mg/kg/injection, schedule: Q01DX005 (iv), vehicle: other) 129 % of control; (dose: 22.3 mg/kg/injection, schedule: Q04DX003 (ip), vehicle: other) 140 % of control; (dose: 25.0 mg/kg/injection, schedule: Q01DX005 (ip), vehicle: saline with Tween-80) 138 % of control; (dose: 30.0 mg/kg/injection, schedule: Q01DX005 (ip), vehicle: saline with Tween-80, evaluated on day 45) 147 and 161 % of control; (dose: 30.0 mg/kg/injection, schedule: Q01DX005 (ip), vehicle: saline with Tween-80, evaluated on day 60) 150 (2×) and 154 % of control; (dose: 30.0 mg/kg/injection, schedule: Q01DX005 (iv), vehicle: other) 140 % of control. Moreover, the T/C was 173 % of control (dose: 44.0 mg/kg/injection, schedule: Q01DX005 (ip), vehicle: saline with Tween-80, evaluated on day 30); 158 and 167 % of control (dose: 44.0 mg/kg/injection, schedule: Q01DX005 (ip), vehicle: saline with Tween-80, evaluated on day 45); 169, 169 [9 of 10 alive], 172, 173 (2×), 188 % of control (dose: 44.0 mg/kg/injection, schedule: Q01DX005 (ip), vehicle: saline with Tween-80, evaluated on day 60); 134 % of control (dose: 44.9 mg/kg/injection, schedule: Q01DX001 (ip), vehicle: other); 109, 165, 174, 189 % of control (dose: 50.0 mg/kg/injection, schedule: Q01DX005 (ip), vehicle: saline with Tween-80); 134 % of control [9 of 10 alive] (dose: 55.6 mg/kg/injection, schedule: Q01DX009 (oral), vehicle: other). For the same molecule, the T/C is, setting by setting: (dose: 67.0 mg/kg/injection, schedule: Q01DX001 (iv), vehicle: other) 139 % of control; under setting [2], 131 % of control; (dose: 67.0 mg/kg/injection, schedule: Q01DX005 (ip), vehicle: saline with Tween-80, evaluated on day 30) 193 % of control; (dose: 67.0 mg/kg/injection, schedule: Q01DX005 (ip), vehicle: saline with Tween-80, evaluated on day 45) 185 and 191 % of control; (dose: 67.0 mg/kg/injection, schedule: Q01DX005 (ip), vehicle: saline with Tween-80, evaluated on day 60) 164, 171, 182 (2×), 188, 199 % of control; (dose: 100.0 mg/kg/injection, schedule: Q01DX005 (ip), vehicle: saline with Tween-80, evaluated on day 30) 86, 137, 157, 199 % of control. In addition, the T/C was 137 and 213 % of control (dose: 100.0 mg/kg/injection, schedule: Q01DX005 (ip), vehicle: saline with Tween-80, evaluated on day 45); 88 [9 of 10 alive], 101, 115, 132, 200, 230 % of control (dose: 100.0 mg/kg/injection, schedule: Q01DX005 (ip), vehicle: saline with Tween-80, evaluated on day 60). For the same molecule, the survivor count by setting is: (dose: 55.0 mg/kg/injection, schedule: Q03HX009 (ip), vehicle: other) 10 of 10; under setting [2], 9 of 10; (dose: 74.83 mg/kg/injection, schedule: Q03HX003 (ip), vehicle: other) 10 of 10; (dose: 100.0 mg/kg/injection, schedule: Q01DX001 (iv), vehicle: other) 4 of 10; (dose: 100.0 mg/kg/injection, schedule: Q01DX005 (ip), vehicle: other) 10 of 10; (dose: 100.0 mg/kg/injection, schedule: Q01DX005 (ip), vehicle: saline with Tween-80) 6 of 6. In addition, the survivor count was 4 of 10 (dose: 111.0 mg/kg/injection, schedule: Q03HX003 (ip), vehicle: other); 10 of 10 (dose: 123.7 mg/kg/injection, schedule: Q01DX009 (oral), vehicle: other); 10 of 10 (2×) (dose: 125.0 mg/kg/injection, schedule: Q01DX005 (ip), vehicle: saline with Tween-80); 9 of 10 (dose: 150.0 mg/kg/injection, schedule: Q01DX005 (ip), vehicle: other); 10 of 10 (dose: 150.0 mg/kg/injection, schedule: Q01DX005 (ip), vehicle: saline with Tween-80); 10 of 10 (dose: 184.6 mg/kg/injection, schedule: Q01DX009 (oral), vehicle: other). Further, the survivor count is, setting by setting: (dose: 200.0 mg/kg/injection, schedule: Q01DX005 (ip), vehicle: saline with Tween-80) 6 of 6; (dose: 224.5 mg/kg/injection, schedule: Q01DX001 (ip), vehicle: other) 10 of 10.
As for `[Cl][Sn]1([c]2ccccc2)[O]CCNCC[O]1`, the T/C reads like this: (dose: 100.0 mg/kg/injection, schedule: Q01DX009 (ip), vehicle: saline) 140 % of control; under setting [1], 137 % of control; (dose: 200.0 mg/kg/injection, schedule: Q01DX009 (ip), vehicle: suspension in saline) 126 % of control.

Values taken from PubChem BioAssay AID330 (DTP/NCI, 2004).
